Values quoted from earlier work in US10391330B2, “Non-invasive systems and methods for in-situ photobiomodulation” (priority 2008, dated 2019).
At least one compound was matched to its structure with a doubt left.

Conditions: Foscan and 652 nm light, clinical studies

Q: For Oc1cccc(-c2c3nc(c(-c4cccc(O)c4)c4ccc([nH]4)c(-c4cccc(O)c4)c4nc(c(-c5cccc(O)c5)c5ccc2[nH]5)CC4)C=C3)c1 [Foscan, Tetra (m-hydroxyphenyl) chlorin], which tissue effect is on record?
A: up to 10 mm
